PubChem BioAssay AID652272, Drosophila RNAi Screening Center, 2013
The deposit covers about 21,000 reagents; shown is an unselected part of those that have a named target and a result. Over the whole deposit, 503 (2.4%) got an active call. 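Raw plate light values, not normalised; calls rest on replicate z-scores that were not deposited; hits include reporter decreases as well as increases.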 Reagent sequences are not shown. Not given: the amount of reagent, the time to read-out.

- Aim: 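Genome-wide knock-down search for components of Hedgehog signalling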 (primary screen)
- Cells: Drosophila clone 8 (Cl8) cells
- Reagents: long dsRNA against Drosophila genes
- Detection: 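Firefly light from a Hedgehog-responsive ptc promoter reporter and Renilla reference light, both read on a plate reader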
- Direction: firefly Hh reporter signal: higher = more ptc reporter light; Renilla reference signal: higher = more Renilla control light
- Rule for the call: 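Hit when the z-score averaged over two replicates is under -2 or over +3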
- Calls: active = hit: reporter lowered or raised; inactive = not a hit

gene | DRSC id | firefly Hh reporter signal, replicate 1 | firefly Hh reporter signal, replicate 2 | firefly Hh reporter signal, replicate 3 | Renilla reference signal, replicate 1 | Renilla reference signal, replicate 2 | call
Sec24AB | DRSC06478 | 1.05e5 | 82684 | – | 4482 | 3101 | inactive
ATPsynepsilonL | DRSC14548 | 52141 | 77466 | – | 2269 | 2369 | inactive
CG17019 | DRSC06642 | 70285 | 52521 | – | 2744 | 1824 | inactive
Nepl15 | DRSC15630 | 95489 | 76945 | – | 4163 | 3325 | inactive
CG32040 | DRSC08981 | 1.71e5 | 3.55e5 | – | 4807 | 14412 | inactive
CG18449 | DRSC06754 | 71601 | 62050 | – | 1773 | 5352 | inactive
CG32104 | DRSC10127 | 52056 | 64372 | 59139 | 5248 | 1848 | inactive
CG32104 | DRSC10128 | 87121 | 1.00e5 | 59749 | 5777 | 3389 | inactive
robo2 | DRSC00377 | 1.53e5 | 97041 | – | 3484 | 2689 | inactive
robo2 | DRSC00378 | 1.12e5 | 74385 | – | 2072 | 1956 | inactive
robo2 | DRSC00686 | 1.24e5 | 69493 | – | 2955 | 1862 | inactive
robo2 | DRSC00691 | 57114 | 34877 | – | 2555 | 2380 | inactive
Cpr65Ec | DRSC11025 | 67498 | 57804 | – | 5808 | 4256 | inactive
CG33474 | DRSC05218 | 1.21e5 | 3.62e5 | – | 3239 | 13145 | inactive
knk | DRSC15993 | 92503 | 81684 | – | 2917 | 2592 | inactive
bap | DRSC16908 | 5.93e5 | 85824 | – | 3856 | 3856 | inactive
Obp57e | DRSC05891 | 1.09e5 | 2.69e5 | – | 3162 | 10976 | inactive
CG14105 | DRSC10107 | 40464 | 33958 | 53338 | 2624 | 3731 | inactive
CG15253 | DRSC01871 | 1.56e5 | 83046 | – | 4280 | 6800 | inactive
tapas | DRSC05950 | 74516 | 59504 | – | 3472 | 2793 | inactive
b | DRSC03487 | 1.08e5 | 73924 | – | 3114 | 6044 | inactive
CG14151 | DRSC10153 | 93307 | 65351 | 60870 | 4521 | 4852 | inactive
uri | DRSC04111 | 50273 | 43030 | – | 3336 | 2849 | active
Bacc | DRSC00735 | 1.17e5 | 1.15e5 | – | 2785 | 3024 | inactive
CG9570 | DRSC20687 | 1.64e5 | 3.71e5 | – | 6539 | 14179 | inactive
CG11313 | DRSC14295 | 62757 | 1.23e5 | – | 1194 | 2988 | inactive
Usp39 | DRSC20032 | 1.50e5 | 1.04e5 | – | 2903 | 2394 | inactive
lncRNA:CR43485 | DRSC08059 | 1.15e5 | 1.91e5 | – | 3722 | 8080 | inactive
sw | DRSC20388 | 8.58e5 | 3.88e5 | – | 48295 | 8061 | inactive
Act42A | DRSC04835 | 57382 | 44721 | – | 869 | 3860 | inactive
Nadk2 | DRSC07072 | 90166 | 55187 | – | 3740 | 2016 | inactive
Rab27 | DRSC18567 | 98893 | 1.01e5 | – | 2731 | 2620 | inactive
Rheb | DRSC12148 | 1.31e5 | 80698 | – | 4777 | 2986 | inactive
CG17217 | DRSC02592 | 1.38e5 | 94325 | – | 3459 | 7536 | inactive
CG32137 | DRSC10271 | 54859 | 41816 | 30864 | 5328 | 1296 | inactive
CG32137 | DRSC10272 | 67245 | 56326 | 30896 | 4985 | 1301 | inactive
PIG-B | DRSC08216 | 1.43e5 | 6.66e5 | 1.61e5 | 6571 | 38048 | inactive
Gr39b | DRSC01848 | 1.82e5 | 3.33e5 | – | 5152 | 15803 | inactive
Dim1 | DRSC00563 | 74327 | 41312 | – | 2100 | 4545 | inactive

7 entries already listed, ordered by “Renilla reference signal, replicate 1”, high to low:
gene | DRSC id | firefly Hh reporter signal, replicate 1 | firefly Hh reporter signal, replicate 2 | firefly Hh reporter signal, replicate 3 | Renilla reference signal, replicate 1 | Renilla reference signal, replicate 2 | call
sw | DRSC20388 | 8.58e5 | 3.88e5 | – | 48295 | 8061 | inactive
CG9570 | DRSC20687 | 1.64e5 | 3.71e5 | – | 6539 | 14179 | inactive
Nadk2 | DRSC07072 | 90166 | 55187 | – | 3740 | 2016 | inactive
lncRNA:CR43485 | DRSC08059 | 1.15e5 | 1.91e5 | – | 3722 | 8080 | inactive
Usp39 | DRSC20032 | 1.50e5 | 1.04e5 | – | 2903 | 2394 | inactive
CG11313 | DRSC14295 | 62757 | 1.23e5 | – | 1194 | 2988 | inactive
Act42A | DRSC04835 | 57382 | 44721 | – | 869 | 3860 | inactive
